In US4308181A (American Home Products Corporation, priority 1980, dated 1981):

Legend:
[1] = general procedure: Boc solid-phase peptide synthesis; benzhydrylamine hydrochloride resin; diisopropylcarbodiimide, hydroxybenzotriazole; conditions: whole synthesis, scale 7 g resin, HOAc
[2] = general procedure: Boc solid-phase peptide synthesis; benzhydrylamine hydrochloride resin (Bachem); diisopropylcarbodiimide, hydroxybenzotriazole; conditions: whole synthesis, scale of the general procedure 7 g resin, acetate

Substance	crude mass [1] [mg]	difficulty met [2]
N-acetylseryl-L-histidyl-L-leucyl-L-valinamide, acetate	733	
PEPTIDE1{[ac].G.S.H.L.[am]}$$$$V2.0	697	After successive washed with DMF (1 time), MeCl2 (2 times), MeOH (1 time) and MeCl2 (3 times), the resin in ninhydrin trace positive and is deprotected with 50% TFA in MeCl2 (containing 0.5% DTE) for

Some peptides are written in HELM: one residue between dots, names in brackets for other building blocks, links after the first $.
